{"sequences": {"note": "The chains behind the UniProt entries cited, without tags or fusion partners. Where a name states a change or a piece, a line headed by the entry shows the natural chain unless it says otherwise.", "UniProt Q9UQ84": "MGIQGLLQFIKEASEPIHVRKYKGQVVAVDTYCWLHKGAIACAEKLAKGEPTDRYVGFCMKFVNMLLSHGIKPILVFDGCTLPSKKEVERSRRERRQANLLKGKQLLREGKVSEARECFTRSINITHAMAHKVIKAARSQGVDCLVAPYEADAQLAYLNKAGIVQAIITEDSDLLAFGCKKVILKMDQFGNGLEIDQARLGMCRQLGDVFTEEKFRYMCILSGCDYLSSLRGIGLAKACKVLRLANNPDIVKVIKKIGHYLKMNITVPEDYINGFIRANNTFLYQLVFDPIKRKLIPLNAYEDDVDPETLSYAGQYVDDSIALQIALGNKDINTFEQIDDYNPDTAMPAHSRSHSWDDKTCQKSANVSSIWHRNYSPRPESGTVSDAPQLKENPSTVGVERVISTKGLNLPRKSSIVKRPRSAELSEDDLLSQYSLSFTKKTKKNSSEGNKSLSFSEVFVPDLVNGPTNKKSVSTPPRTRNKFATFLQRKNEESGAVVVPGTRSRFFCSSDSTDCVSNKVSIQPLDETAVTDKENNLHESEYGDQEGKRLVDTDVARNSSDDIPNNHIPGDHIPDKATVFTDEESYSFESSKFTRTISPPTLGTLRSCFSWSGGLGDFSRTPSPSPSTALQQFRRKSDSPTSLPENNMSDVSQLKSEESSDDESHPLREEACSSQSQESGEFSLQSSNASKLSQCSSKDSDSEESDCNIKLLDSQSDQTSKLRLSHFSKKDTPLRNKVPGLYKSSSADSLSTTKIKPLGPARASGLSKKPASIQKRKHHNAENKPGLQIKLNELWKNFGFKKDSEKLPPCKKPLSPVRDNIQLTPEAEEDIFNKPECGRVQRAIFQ", "UniProt Q9Y6I3": "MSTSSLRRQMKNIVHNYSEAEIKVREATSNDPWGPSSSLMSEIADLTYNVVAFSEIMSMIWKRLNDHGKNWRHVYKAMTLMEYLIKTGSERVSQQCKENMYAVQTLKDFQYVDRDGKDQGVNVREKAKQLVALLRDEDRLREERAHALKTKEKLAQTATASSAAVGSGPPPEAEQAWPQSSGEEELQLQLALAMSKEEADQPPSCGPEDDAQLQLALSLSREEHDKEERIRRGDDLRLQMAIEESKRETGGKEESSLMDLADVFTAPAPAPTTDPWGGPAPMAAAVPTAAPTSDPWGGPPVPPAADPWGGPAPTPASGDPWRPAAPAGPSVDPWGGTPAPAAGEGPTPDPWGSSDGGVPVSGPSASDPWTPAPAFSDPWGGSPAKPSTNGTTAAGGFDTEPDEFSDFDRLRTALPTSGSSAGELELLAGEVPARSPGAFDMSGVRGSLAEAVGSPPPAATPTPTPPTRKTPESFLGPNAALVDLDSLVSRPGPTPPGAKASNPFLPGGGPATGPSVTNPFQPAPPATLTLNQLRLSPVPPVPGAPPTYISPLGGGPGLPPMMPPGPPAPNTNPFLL", "UniProt Q96ET8": "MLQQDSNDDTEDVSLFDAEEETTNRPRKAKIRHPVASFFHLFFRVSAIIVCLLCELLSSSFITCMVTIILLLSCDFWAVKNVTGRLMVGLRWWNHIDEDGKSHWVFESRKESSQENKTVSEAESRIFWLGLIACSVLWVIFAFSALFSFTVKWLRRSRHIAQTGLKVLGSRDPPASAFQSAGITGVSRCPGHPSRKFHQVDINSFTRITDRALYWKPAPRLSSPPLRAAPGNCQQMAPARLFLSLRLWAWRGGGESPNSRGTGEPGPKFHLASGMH", "UniProt Q96CS3": "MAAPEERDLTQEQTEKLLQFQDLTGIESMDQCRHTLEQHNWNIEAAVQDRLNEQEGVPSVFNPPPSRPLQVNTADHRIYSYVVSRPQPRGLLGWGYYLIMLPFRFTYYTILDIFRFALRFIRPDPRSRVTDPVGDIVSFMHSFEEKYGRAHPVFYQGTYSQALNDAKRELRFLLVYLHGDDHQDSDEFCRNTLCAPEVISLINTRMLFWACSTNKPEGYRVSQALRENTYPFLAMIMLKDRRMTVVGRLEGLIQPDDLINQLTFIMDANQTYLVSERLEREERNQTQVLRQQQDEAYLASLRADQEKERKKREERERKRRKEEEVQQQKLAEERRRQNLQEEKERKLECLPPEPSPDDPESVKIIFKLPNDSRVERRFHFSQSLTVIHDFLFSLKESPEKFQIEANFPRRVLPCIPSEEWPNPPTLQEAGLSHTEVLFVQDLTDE", "UniProt Q16254": "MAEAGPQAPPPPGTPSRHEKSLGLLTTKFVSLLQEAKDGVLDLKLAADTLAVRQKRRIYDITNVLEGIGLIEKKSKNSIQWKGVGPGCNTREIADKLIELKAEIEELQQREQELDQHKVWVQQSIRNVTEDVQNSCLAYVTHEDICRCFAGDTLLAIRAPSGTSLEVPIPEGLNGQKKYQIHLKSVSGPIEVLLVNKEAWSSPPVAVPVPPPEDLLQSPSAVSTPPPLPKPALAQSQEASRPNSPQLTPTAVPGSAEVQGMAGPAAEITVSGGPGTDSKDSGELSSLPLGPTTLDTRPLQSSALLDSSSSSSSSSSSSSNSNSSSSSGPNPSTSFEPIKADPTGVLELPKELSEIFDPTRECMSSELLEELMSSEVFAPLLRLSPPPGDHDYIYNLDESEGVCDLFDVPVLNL", "UniProt P42892": "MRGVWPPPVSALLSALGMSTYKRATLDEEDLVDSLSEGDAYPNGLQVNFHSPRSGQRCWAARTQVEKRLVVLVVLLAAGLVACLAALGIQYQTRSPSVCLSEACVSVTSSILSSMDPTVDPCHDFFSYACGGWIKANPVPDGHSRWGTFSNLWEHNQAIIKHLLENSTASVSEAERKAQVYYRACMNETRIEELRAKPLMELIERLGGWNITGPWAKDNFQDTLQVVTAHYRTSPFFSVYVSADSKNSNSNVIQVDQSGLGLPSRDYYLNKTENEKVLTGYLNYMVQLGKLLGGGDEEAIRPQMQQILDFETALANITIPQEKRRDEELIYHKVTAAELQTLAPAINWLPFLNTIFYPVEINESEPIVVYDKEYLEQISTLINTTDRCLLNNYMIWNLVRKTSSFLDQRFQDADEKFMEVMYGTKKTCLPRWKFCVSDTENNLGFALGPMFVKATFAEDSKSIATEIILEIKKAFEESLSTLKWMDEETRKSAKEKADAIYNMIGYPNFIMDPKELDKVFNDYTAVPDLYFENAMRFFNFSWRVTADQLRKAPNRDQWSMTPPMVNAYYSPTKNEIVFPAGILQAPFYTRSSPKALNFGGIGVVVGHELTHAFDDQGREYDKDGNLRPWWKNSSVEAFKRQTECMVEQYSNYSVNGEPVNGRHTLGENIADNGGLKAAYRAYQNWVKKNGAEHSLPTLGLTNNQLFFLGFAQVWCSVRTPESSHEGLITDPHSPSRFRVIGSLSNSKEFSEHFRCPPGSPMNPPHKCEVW", "UniProt Q9H223": "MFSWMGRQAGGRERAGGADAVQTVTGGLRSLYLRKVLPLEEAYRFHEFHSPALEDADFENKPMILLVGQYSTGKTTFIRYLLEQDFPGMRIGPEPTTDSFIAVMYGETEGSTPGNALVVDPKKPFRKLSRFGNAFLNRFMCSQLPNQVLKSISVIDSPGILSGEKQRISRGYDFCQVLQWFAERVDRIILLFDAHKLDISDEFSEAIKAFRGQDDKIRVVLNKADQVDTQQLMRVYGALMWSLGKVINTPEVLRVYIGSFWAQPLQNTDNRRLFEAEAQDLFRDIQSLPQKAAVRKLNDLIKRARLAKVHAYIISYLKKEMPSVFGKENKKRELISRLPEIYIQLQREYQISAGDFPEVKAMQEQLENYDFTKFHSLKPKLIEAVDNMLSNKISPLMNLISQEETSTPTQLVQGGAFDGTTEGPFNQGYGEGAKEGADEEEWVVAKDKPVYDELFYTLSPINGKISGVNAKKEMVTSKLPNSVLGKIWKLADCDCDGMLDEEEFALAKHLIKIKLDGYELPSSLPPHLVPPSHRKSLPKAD", "UniProt Q9BTL3": "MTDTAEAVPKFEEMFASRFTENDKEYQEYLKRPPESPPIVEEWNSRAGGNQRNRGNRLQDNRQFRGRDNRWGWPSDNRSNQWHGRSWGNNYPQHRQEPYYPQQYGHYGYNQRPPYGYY", "UniProt Q01469, whole entry": "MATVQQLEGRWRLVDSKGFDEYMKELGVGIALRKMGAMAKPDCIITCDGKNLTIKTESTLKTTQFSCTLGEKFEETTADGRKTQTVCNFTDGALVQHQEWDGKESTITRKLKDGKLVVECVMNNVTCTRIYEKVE", "UniProt Q13409, whole entry": "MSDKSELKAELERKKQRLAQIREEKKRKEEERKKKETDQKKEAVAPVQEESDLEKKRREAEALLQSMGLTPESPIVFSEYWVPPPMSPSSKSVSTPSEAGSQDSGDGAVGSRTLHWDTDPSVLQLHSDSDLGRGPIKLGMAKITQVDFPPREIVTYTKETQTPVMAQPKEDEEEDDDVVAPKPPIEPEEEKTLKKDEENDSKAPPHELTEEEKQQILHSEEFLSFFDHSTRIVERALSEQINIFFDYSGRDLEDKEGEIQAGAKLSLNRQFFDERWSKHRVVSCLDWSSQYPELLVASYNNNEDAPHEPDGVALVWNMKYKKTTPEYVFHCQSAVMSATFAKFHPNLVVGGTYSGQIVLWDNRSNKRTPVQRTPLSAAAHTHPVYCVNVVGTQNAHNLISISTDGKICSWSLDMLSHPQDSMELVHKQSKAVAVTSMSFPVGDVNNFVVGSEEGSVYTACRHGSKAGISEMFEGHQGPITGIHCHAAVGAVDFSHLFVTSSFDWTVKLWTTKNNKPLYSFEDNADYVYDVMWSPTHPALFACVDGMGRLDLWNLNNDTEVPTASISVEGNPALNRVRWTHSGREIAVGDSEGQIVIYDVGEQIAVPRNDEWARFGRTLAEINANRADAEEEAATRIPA", "UniProt Q15717, whole entry": "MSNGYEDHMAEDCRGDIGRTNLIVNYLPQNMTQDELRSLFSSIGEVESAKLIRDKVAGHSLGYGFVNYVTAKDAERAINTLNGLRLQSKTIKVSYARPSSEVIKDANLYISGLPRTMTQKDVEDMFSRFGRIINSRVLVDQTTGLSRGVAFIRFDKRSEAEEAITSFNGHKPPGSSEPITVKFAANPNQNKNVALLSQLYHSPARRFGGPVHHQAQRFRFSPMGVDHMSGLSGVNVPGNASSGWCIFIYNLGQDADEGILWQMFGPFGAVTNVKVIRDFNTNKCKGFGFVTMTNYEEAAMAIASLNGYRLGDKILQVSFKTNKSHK", "UniProt Q6P179": "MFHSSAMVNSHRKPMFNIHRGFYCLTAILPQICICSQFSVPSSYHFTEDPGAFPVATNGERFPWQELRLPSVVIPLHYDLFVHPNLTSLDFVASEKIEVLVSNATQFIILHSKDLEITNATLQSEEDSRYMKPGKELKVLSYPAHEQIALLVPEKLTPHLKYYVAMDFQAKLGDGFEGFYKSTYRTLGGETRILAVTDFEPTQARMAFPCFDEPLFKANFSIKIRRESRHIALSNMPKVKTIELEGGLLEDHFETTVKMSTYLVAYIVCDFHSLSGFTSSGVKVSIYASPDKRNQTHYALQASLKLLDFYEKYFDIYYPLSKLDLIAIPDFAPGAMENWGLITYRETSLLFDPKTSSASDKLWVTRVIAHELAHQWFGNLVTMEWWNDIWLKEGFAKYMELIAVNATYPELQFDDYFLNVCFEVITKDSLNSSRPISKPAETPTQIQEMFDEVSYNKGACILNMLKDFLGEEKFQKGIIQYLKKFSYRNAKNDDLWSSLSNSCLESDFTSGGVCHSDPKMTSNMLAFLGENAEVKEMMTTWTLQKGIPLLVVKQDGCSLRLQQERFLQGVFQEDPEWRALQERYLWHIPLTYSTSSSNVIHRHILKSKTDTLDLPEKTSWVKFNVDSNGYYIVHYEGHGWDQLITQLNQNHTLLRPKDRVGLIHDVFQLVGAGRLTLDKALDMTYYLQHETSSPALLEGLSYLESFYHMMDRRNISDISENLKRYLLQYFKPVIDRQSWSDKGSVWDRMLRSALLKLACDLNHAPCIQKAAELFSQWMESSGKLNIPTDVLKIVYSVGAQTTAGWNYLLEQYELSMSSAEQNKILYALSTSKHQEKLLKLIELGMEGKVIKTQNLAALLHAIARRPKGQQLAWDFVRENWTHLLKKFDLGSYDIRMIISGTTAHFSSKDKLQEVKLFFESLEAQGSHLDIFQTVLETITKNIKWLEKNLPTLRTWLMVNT", "UniProt Q86YB8": "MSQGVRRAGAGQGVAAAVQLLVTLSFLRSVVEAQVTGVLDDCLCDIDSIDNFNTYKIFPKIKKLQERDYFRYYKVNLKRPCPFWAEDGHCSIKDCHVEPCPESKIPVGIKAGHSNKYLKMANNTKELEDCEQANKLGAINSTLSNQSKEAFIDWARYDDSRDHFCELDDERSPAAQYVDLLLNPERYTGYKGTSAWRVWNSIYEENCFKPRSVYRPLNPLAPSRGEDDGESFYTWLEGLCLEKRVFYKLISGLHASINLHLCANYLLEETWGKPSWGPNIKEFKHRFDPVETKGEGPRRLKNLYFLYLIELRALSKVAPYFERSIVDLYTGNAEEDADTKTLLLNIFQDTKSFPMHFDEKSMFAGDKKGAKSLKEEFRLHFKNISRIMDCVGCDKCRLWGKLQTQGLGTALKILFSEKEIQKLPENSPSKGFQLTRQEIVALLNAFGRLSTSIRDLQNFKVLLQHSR"}, "source": "the supplement of paper PMC7666118", "note": "The list shows a part of the results."}
{"compound": "COc1ccc(Cn2ccc3cc(C)c(C(=O)NO)cc32)cc1", "assay": "dose-dependent thermal stabilisation call (2D-TPP, DLPTP, 10% FDR) (binary (1 = stabilised)); higher = stabilised by the compound", "details": "system: HL-60 intact cells; concentration range 0.04-10 µM", "procedure": "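2D thermal proteome profiling in intact HL-60 cells treated with BRD-3811 (0, 0.04, 0.29, 2, 10 uM) for 90 min at 37 C, then heated 3 min at one of 12 temperatures (42-63.9 C). Soluble protein was quantified by TMT10 MS. The value is the DLPTP call of the paper: dose-dependent thermal stabilisation over all temperatures at 10% FDR (F-test of a dose-response against a flat model); one experiment, one call per tested protein.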"}
{"target": "DUSP23 (UniProt Q9BVJ7)", "dose-dependent thermal stabilisation call": "inactive: 0"}
{"target": "FAM46C (UniProt Q5VWP2)", "dose-dependent thermal stabilisation call": "inactive: 0"}
{"target": "EHD1 (UniProt Q9H4M9)", "dose-dependent thermal stabilisation call": "inactive: 0"}
{"target": "ETHE1 (UniProt O95571)", "dose-dependent thermal stabilisation call": "inactive: 0"}
{"target": "EXO1 (UniProt Q9UQ84)", "dose-dependent thermal stabilisation call": "inactive: 0"}
{"target": "FAM134A (UniProt Q8NC44)", "dose-dependent thermal stabilisation call": "inactive: 0"}
{"target": "DTNBP1 (UniProt Q96EV8)", "dose-dependent thermal stabilisation call": "inactive: 0"}
{"target": "EIF5B (UniProt O60841)", "dose-dependent thermal stabilisation call": "inactive: 0"}
{"target": "EPN1 (UniProt Q9Y6I3)", "dose-dependent thermal stabilisation call": "inactive: 0"}
{"target": "EPS15L1 (UniProt Q9UBC2)", "dose-dependent thermal stabilisation call": "inactive: 0"}
{"target": "FAM122A (UniProt Q96E09)", "dose-dependent thermal stabilisation call": "inactive: 0"}
{"target": "ENAH (UniProt Q8N8S7)", "dose-dependent thermal stabilisation call": "inactive: 0"}
{"target": "EXOSC10 (UniProt Q01780)", "dose-dependent thermal stabilisation call": "inactive: 0"}
{"target": "FAM175A (UniProt Q6UWZ7)", "dose-dependent thermal stabilisation call": "inactive: 0"}
{"target": "FAM127A", "dose-dependent thermal stabilisation call": "inactive: 0"}
{"target": "EIF4A1 (UniProt P60842)", "dose-dependent thermal stabilisation call": "inactive: 0"}
{"target": "FAM18B2 (UniProt Q96ET8)", "dose-dependent thermal stabilisation call": "inactive: 0"}
{"target": "FAF2 (UniProt Q96CS3)", "dose-dependent thermal stabilisation call": "inactive: 0"}
{"target": "FAM120C (UniProt Q9NX05)", "dose-dependent thermal stabilisation call": "inactive: 0"}
{"target": "DYM (UniProt Q7RTS9)", "dose-dependent thermal stabilisation call": "inactive: 0"}
{"target": "E2F4 (UniProt Q16254)", "dose-dependent thermal stabilisation call": "inactive: 0"}
{"target": "ECD (UniProt O95905)", "dose-dependent thermal stabilisation call": "inactive: 0"}
{"target": "FADS2 (UniProt O95864)", "dose-dependent thermal stabilisation call": "inactive: 0"}
{"target": "EPHX1 (UniProt P07099)", "dose-dependent thermal stabilisation call": "active: 1"}
{"target": "ETV3 (UniProt P41162)", "dose-dependent thermal stabilisation call": "inactive: 0"}
{"target": "EFCAB4B (UniProt Q9BSW2)", "dose-dependent thermal stabilisation call": "inactive: 0"}
{"target": "DVL2 (UniProt O14641)", "dose-dependent thermal stabilisation call": "inactive: 0"}
{"target": "EIF4B (UniProt P23588)", "dose-dependent thermal stabilisation call": "inactive: 0"}
{"target": "FAM119A (UniProt Q8WXB1)", "dose-dependent thermal stabilisation call": "inactive: 0"}
{"target": "EIF3F (UniProt O00303)", "dose-dependent thermal stabilisation call": "inactive: 0"}
{"target": "ECE1 (UniProt P42892)", "dose-dependent thermal stabilisation call": "inactive: 0"}
{"target": "EHD4 (UniProt Q9H223)", "dose-dependent thermal stabilisation call": "inactive: 0"}
{"target": "FAM103A1 (UniProt Q9BTL3)", "dose-dependent thermal stabilisation call": "inactive: 0"}
{"target": "ERP29 (UniProt P30040)", "dose-dependent thermal stabilisation call": "inactive: 0"}
{"target": "FABP5 (UniProt Q01469)", "dose-dependent thermal stabilisation call": "inactive: 0"}
{"target": "DYNC1I2 (UniProt Q13409)", "dose-dependent thermal stabilisation call": "inactive: 0"}
{"target": "EEF2 (UniProt P13639)", "dose-dependent thermal stabilisation call": "inactive: 0"}
{"target": "ELAVL1 (UniProt Q15717)", "dose-dependent thermal stabilisation call": "inactive: 0"}
{"target": "ERAP2 (UniProt Q6P179)", "dose-dependent thermal stabilisation call": "inactive: 0"}
{"target": "ERO1LB (UniProt Q86YB8)", "dose-dependent thermal stabilisation call": "inactive: 0"}
